What all share (details): yeast three-hybrid, YBZ-1, SC-Leu-His + 0.5 mM 3-AT, 4 days
The target of assay [1] is T1, PUM1 PUF domain R2-VFQ R3-THE R4-TFR N899V + Y900F + C935T + R936H + Q939E + N971T + H972F + Q975R (UniProt Q14671).
T1 sequence: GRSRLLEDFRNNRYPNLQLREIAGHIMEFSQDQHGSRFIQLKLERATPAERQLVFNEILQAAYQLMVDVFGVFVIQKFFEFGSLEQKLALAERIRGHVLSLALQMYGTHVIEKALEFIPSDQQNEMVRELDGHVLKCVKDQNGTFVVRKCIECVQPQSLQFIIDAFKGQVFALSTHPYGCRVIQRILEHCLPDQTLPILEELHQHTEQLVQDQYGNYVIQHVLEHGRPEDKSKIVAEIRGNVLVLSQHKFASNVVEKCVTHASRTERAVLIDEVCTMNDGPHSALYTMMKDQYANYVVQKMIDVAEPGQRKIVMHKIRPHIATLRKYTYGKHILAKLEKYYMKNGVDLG

Assay [2] concerns the target T2, PUM1 PUF domain R1-QFR R2-VFQ R7-NPG S863Q + R864F + Q867R + N899V + Y900F + S1079N + N1080P + E1083G (UniProt Q14671).
T2 sequence: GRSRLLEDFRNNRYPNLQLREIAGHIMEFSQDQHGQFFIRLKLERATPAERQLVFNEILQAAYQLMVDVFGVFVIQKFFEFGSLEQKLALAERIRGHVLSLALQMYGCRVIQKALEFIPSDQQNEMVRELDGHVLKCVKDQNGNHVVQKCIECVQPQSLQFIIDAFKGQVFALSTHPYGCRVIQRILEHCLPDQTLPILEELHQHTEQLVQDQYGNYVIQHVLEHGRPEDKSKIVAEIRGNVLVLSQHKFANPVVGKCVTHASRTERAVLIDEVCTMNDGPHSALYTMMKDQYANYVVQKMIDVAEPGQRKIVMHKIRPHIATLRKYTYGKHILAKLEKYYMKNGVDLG

In assay [3] the target is T3, PUM1 PUF domain R5-PHQ R6-SWD C1007P + R1008H + N1043S + Y1044W + Q1047D (UniProt Q14671).
T3 sequence: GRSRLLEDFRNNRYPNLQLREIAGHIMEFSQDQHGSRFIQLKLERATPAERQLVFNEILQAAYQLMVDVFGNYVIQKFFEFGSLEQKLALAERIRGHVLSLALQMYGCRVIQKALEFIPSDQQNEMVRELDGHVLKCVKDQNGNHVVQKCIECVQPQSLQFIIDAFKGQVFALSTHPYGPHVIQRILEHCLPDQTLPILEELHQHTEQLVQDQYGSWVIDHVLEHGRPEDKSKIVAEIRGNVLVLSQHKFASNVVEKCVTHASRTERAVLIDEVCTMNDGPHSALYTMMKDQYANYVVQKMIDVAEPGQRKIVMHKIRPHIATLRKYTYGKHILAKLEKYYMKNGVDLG

Assay [4] concerns the target T4, PUM1 PUF domain R6-SWD R7-NPG N1043S + Y1044W + Q1047D + S1079N + N1080P + E1083G (UniProt Q14671).
T4 sequence: T3 sequence with P180C, H181R, S252N, N253P, E256G

Assay [5] concerns the target T5, PUM1 PUF domain R6-SWD R7-NPG N1043S + Y1044W + Q1047D + S1079N + N1080P + E1083G (Homo sapiens) (UniProt Q14671).
T5 sequence: T3 sequence with P180C, H181R, S252N, N253P, E256G

The target in assay [6] is T6, PUM1 PUF domain R3-THE R4-TFR C935T + R936H + Q939E + N971T + H972F + Q975R (UniProt Q14671).
T6 sequence: T1 sequence with V72N, F73Y

Assay [7] addresses T7, PUM1 PUF domain R3-THE R4-TFR R7-NPG C935T + R936H + Q939E + N971T + H972F + Q975R + S1079N + N1080P + E1083G (Homo sapiens) (UniProt Q14671).
T7 sequence: T1 sequence with V72N, F73Y, S252N, N253P, E256G

25 sequences from article PMC8384837 can be followed below.

Residue numbers refer to the chain shown, from its start. Some of the results follow. For some assays here: At the low end of the ranking the order means little. For some assays here: Construct or isoform of the protein are uncertain.

For the sequence “GGCUAGAACUAGUGGAUCCCCCGGCGCCCGGCGGCUCGAGCCCGGGUAAGUUACCUCCGUCUGCAUGCCGCCGGGCGCCAUGCCUGCAGGUCGACUCUAGAAAACAUG”, the binding signal (log2 enrichment (interaction score)) in assay [1] was -3.29.
For the sequence “GGCUAGAACUAGUGGAUCCCCCGGCGCCCGGCGGCUCGAGCCCGGGUAAGUUUACAUCGUCUGCAUGCCGCCGGGCGCCAUGCCUGCAGGUCGACUCUAGAAAACAUG”, the binding signal (log2 enrichment (interaction score)) in assay [2] was -6.84; in assay [3], -6.7; in assay [4] it was -2.32.
On to “GGCUAGAACUAGUGGAUCCCCCGGCGCCCGGCGGCUCGAGCCCGGGUAAGUUGUCCUCGUCUGCAUGCCGCCGGGCGCCAUGCCUGCAGGUCGACUCUAGAAAACAUG”, for which the binding signal (log2 enrichment (interaction score)) was -5.88 in assay [2] and -1.78 in assay [5].
Consider “GGCUAGAACUAGUGGAUCCCCCGGCGCCCGGCGGCUCGAGCCCGGGUAAGGUUGAGACGUCUGCAUGCCGCCGGGCGCCAUGCCUGCAGGUCGACUCUAGAAAACAUG”, for which the binding signal (log2 enrichment (interaction score)) in assay [1] is -5.54.
Same read-out and setting: under “GGCUAGAACUAGUGGAUCCCCCGGCGCCCGGCGGCUCGAGCCCGGGUAAGUUAAAUACGUCUGCAUGCCGCCGGGCGCCAUGCCUGCAGGUCGACUCUAGAAAACAUG” stands -5.71.
As to “GGCUAGAACUAGUGGAUCCCCCGGCGCCCGGCGGCUCGAGCCCGGGUAAGUAGGCGAAGUCUGCAUGCCGCCGGGCGCCAUGCCUGCAGGUCGACUCUAGAAAACAUG”, the values for the binding signal (log2 enrichment (interaction score)) in assay [1] and in assay [6] were -5.5 and -6.44, respectively.
For “GGCUAGAACUAGUGGAUCCCCCGGCGCCCGGCGGCUCGAGCCCGGGUAAGUGGAUCUAGUCUGCAUGCCGCCGGGCGCCAUGCCUGCAGGUCGACUCUAGAAAACAUG”, in that order: -5.03 and -7.03.
Regarding “GGCUAGAACUAGUGGAUCCCCCGGCGCCCGGCGGCUCGAGCCCGGGUAAGUAGAUUUAGUCUGCAUGCCGCCGGGCGCCAUGCCUGCAGGUCGACUCUAGAAAACAUG”, the binding signal (log2 enrichment (interaction score)) is -4.92 in assay [1] and -7.59 in assay [6].
For “GGCUAGAACUAGUGGAUCCCCCGGCGCCCGGCGGCUCGAGCCCGGGUAAGAAUACGUCGUCUGCAUGCCGCCGGGCGCCAUGCCUGCAGGUCGACUCUAGAAAACAUG”, the binding signal (log2 enrichment (interaction score)) in assay [1] was -5.88; in assay [6] it was -6.48.
Turning to “GGCUAGAACUAGUGGAUCCCCCGGCGCCCGGCGGCUCGAGCCCGGGUAAGCUUGCGUCGUCUGCAUGCCGCCGGGCGCCAUGCCUGCAGGUCGACUCUAGAAAACAUG”, the results for the binding signal (log2 enrichment (interaction score)) in assay [1], in assay [6] and in assay [7] were -4.83, -5.56 and -1.92, respectively.
As to “GGCUAGAACUAGUGGAUCCCCCGGCGCCCGGCGGCUCGAGCCCGGGUAAGUUUUGGUCGUCUGCAUGCCGCCGGGCGCCAUGCCUGCAGGUCGACUCUAGAAAACAUG”, the binding signal (log2 enrichment (interaction score)) is -6.09 in assay [1] and less than -6.83 in assay [6].
For the sequence “GGCUAGAACUAGUGGAUCCCCCGGCGCCCGGCGGCUCGAGCCCGGGUAAGGCUGCAGAGUCUGCAUGCCGCCGGGCGCCAUGCCUGCAGGUCGACUCUAGAAAACAUG”, the binding signal (log2 enrichment (interaction score)) in assay [1] is -2.86; in assay [6], less than -6.71.
In the case of “GGCUAGAACUAGUGGAUCCCCCGGCGCCCGGCGGCUCGAGCCCGGGUAAGAGUUCCUUGUCUGCAUGCCGCCGGGCGCCAUGCCUGCAGGUCGACUCUAGAAAACAUG”, the results for the binding signal (log2 enrichment (interaction score)) in assay [1] and in assay [6] were -5.4 and -6.4, respectively.
For “GGCUAGAACUAGUGGAUCCCCCGGCGCCCGGCGGCUCGAGCCCGGGUAAGUGUCUGUUGUCUGCAUGCCGCCGGGCGCCAUGCCUGCAGGUCGACUCUAGAAAACAUG”, in that order: -5.49 and -8.03.
For “GGCUAGAACUAGUGGAUCCCCCGGCGCCCGGCGGCUCGAGCCCGGGUAAGCGGACCACGUCUGCAUGCCGCCGGGCGCCAUGCCUGCAGGUCGACUCUAGAAAACAUG”, in that order: less than -5.96 and less than -6.31.
For “GGCUAGAACUAGUGGAUCCCCCGGCGCCCGGCGGCUCGAGCCCGGGUAAGCGAAUGUAGUCUGCAUGCCGCCGGGCGCCAUGCCUGCAGGUCGACUCUAGAAAACAUG”, in that order: -5.72 and -5.84.
Turning to “GGCUAGAACUAGUGGAUCCCCCGGCGCCCGGCGGCUCGAGCCCGGGUAAGUCUUCAAAGUCUGCAUGCCGCCGGGCGCCAUGCCUGCAGGUCGACUCUAGAAAACAUG”, the results for the binding signal (log2 enrichment (interaction score)) in assay [1] and in assay [6] were -5.56 and -6.81, respectively.
On to “GGCUAGAACUAGUGGAUCCCCCGGCGCCCGGCGGCUCGAGCCCGGGUAAGAUGACAUAGUCUGCAUGCCGCCGGGCGCCAUGCCUGCAGGUCGACUCUAGAAAACAUG”, for which the values for the binding signal (log2 enrichment (interaction score)) in assay [1] and in assay [6] were -5.14 and -5.23, respectively.
As to “GGCUAGAACUAGUGGAUCCCCCGGCGCCCGGCGGCUCGAGCCCGGGUAAGCGUAGGUAGUCUGCAUGCCGCCGGGCGCCAUGCCUGCAGGUCGACUCUAGAAAACAUG”, the binding signal (log2 enrichment (interaction score)) in assay [1] is -5.62; in assay [6], -7.51.
The like results for “GGCUAGAACUAGUGGAUCCCCCGGCGCCCGGCGGCUCGAGCCCGGGUAAGUUUACCUAGUCUGCAUGCCGCCGGGCGCCAUGCCUGCAGGUCGACUCUAGAAAACAUG” were, in that order, -5.62 and -6.2.
For “GGCUAGAACUAGUGGAUCCCCCGGCGCCCGGCGGCUCGAGCCCGGGUAAGAUAACGAGGUCUGCAUGCCGCCGGGCGCCAUGCCUGCAGGUCGACUCUAGAAAACAUG”, in that order: -5.21 and less than -7.09.
For “GGCUAGAACUAGUGGAUCCCCCGGCGCCCGGCGGCUCGAGCCCGGGUAAGAUUUCAGAGUCUGCAUGCCGCCGGGCGCCAUGCCUGCAGGUCGACUCUAGAAAACAUG”, in that order: -5.95 and -7.34.
For “GGCUAGAACUAGUGGAUCCCCCGGCGCCCGGCGGCUCGAGCCCGGGUAAGGUUGCGCCGUCUGCAUGCCGCCGGGCGCCAUGCCUGCAGGUCGACUCUAGAAAACAUG”, the figures for the binding signal (log2 enrichment (interaction score)) in assay [1] and in assay [6] were -5.62 and -7.11, respectively.
For “GGCUAGAACUAGUGGAUCCCCCGGCGCCCGGCGGCUCGAGCCCGGGUAAGUCUUAGUGGUCUGCAUGCCGCCGGGCGCCAUGCCUGCAGGUCGACUCUAGAAAACAUG”, in that order: -6.16 and -6.45.
Turning to “GGCUAGAACUAGUGGAUCCCCCGGCGCCCGGCGGCUCGAGCCCGGGUAAGUCCGGGUAGUCUGCAUGCCGCCGGGCGCCAUGCCUGCAGGUCGACUCUAGAAAACAUG”, the binding signal (log2 enrichment (interaction score)) in assay [1] was -5.33; in assay [6], less than -7.57; in assay [7], less than -1.23.
